# Patent US5637682, “High-affinity oligonucleotide ligands to the tachykinin substance P” (NeXstar Pharmaceuticals, Inc.)
# Protein sequences, listed by entry. Tags and fused reporters are not part of them. Lines headed by an entry give the natural chain unless they say otherwise; changes in a name come on top.
# UniProt P20366: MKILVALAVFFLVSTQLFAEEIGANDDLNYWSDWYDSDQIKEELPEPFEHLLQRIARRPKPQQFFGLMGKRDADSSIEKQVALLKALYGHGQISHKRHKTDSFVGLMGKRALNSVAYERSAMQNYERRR
# Assays:
# Substance P (SP) = target: T1, Substance P (SP) (UniProt P20366); assay: binding assay; conditions: equilibrium dialysis, 4 uM RNA, 2 uM SP; group representatives tested; synthetic protein
# T1 sequence: RPKPQQFFGLM
# Substance P fragment 1-4 = assay: competition with a labelled probe; conditions: no significant binding at 32 uM (20-fold excess over SP); synthetic protein; protein details: synthetic peptide, Sigma; variant of Ligand A13
Sequence,binding result (Substance P (SP)),binding result (Substance P fragment 1-4)
GGGAGCUCAGAAUAAACGCUCAACGCACGACGCACCGUUACAGGGGGGGAAAAAGCCAACCCGAGCGCACGACGGACCGACGCUUCGACAUGAGGCCCGGAUCCGGC [Experiment A group 3/4 ligand (SEQ 20)],binds,
GGGAGCUCAGAAUAAACGCUCAACUUCCAAGGCAGUGGAAACCCUAAGGUCAAUAAUGACCAAUGACGCCGCUCCGGUUCAACCUUCGACAUGAGGCCCGGAUCCGGC [Ligand B28],,no binding
GGGAGCUCAGAAUAAACGCUCAACGCACGACGCACCGUUACAGGGGGGGAAGAACCAACCCGAGCGCACGACGGACCGACGCUUCGACAUGAGGCCCGGAUCCGGC [Experiment A group 3/4 ligand (SEQ 18)],binds,
GGGAGCUCAGAAUAAACGCUCAACGCACGACGCACCGUUACAGGGGGGGAAAAGCCAACCCGAGCGCACGACGGACCGACGCUUCGACAUGAGGCCCGGAUCCGGC [Experiment A group 3/4 ligand (SEQ 19)],binds,
GGGAGCUCAGAAUAAACGCUCAAAGGGCAACGCGGGCACCCCGACAGGUGCAAAACGCACCGACGCCCGGCCGAAGAAGGGGAUUCGACAUGAGGCCCGGAUCCGGC [Experiment A group 3/4 ligand (SEQ 21)],binds,

# For at least one entry, the source does not settle the construct or the ends of the probe. For some assays here: No signal at the amounts used counts as a negative.
